The campaign covered roughly 52,000 sequences. About 210 (0.4%) were called active.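 Rule for the calls: active = gene whose silencing raises cell survival under the drug, median off-target-corrected z-score across its silencing RNAs 2 or more; inactive = the rest.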 The list shows a part of the results.

The text below walks through data of PubChem BioAssay AID1347423 (Functional Genomics Laboratory (NCATS/FGL), 2020).

The test is described as follows: Resistance to Poly (ADP-Ribose) Polymerase inhibitor: Gene Identification via Genome-wide siRNA Screen. The conditions noted are these: mouse BRCA2 R2336H ES cells, olaparib, CellTiter-Glo viability; stronger effect = higher value. An outline of the steps: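 Mouse BRCA2 R2336H ES cells were reverse-transfected with siRNA (20 nM final), treated at 48 h with 500 nM olaparib, and read by CellTiter-Glo after 72 h. Scores: MAD-based z per siRNA, median per gene, seed off-target correction.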
As for GGUCAAGACAAUCUGAUCATT against Siat6, the z-score is inactive: 1.65.
To GGAAACACCUAUCUUCUGGTT against Npdc1 belongs inactive: 0.591.
To GGCAAUGGUUCAGCAGUGGTT against Eef1e1 belongs inactive: -0.219.
To GGUUCCUCUUGUGAGUGCCTT against Tm7sf1 belongs inactive: -0.814; to CCUCUUCACUAUAGCACUCTT against Olfr1019, inactive: 0.42; to “GGGAUAGGCUUAAACUCAUTT against 4930569K13Rik”, inactive: -0.0564.
Consider GGAUUAAACCAUUAACUGCTT against Stdp1, for which the z-score is inactive: -0.349.
To GGAUAUUGGUGGCACUUUATT against Med6 belongs inactive: 0.125.
CCCAAUUCAGGUUUUUAACTT against Midn: the z-score was inactive: 0.524.
As to GCUGGUAUACGAGACCGUATT against Fshb, the z-score is inactive: 0.127.
Turning to GCUCUGCUAUCGUGAUCUGTT against Kctd13, the z-score is inactive: -1.44.
On to “GCCCAGUCUUCUGAUGAACTT against 2400006N03Rik”, for which the z-score is inactive: 0.284.
The same measure for GGUCCUACAUCUCCUUCGATT against Cars: inactive: -2.9.
The same measure for GCUAUUCAAUGGACCAGAATT against Olfr490: inactive: -2.5; for CCAGAUGCAUCAAAAUUUUTT against Tbc1d15: inactive: 0.242; for GGCCAGCAAAUUCAAAUCATT against Sp4: inactive: 0.133.
For GGCUAUUGUACAACUUAUATT against Pafah1b2, the z-score was inactive: 0.135.
The same measure for GGUUAAUUGUCGACUAGACTT against Pcdhgb5: inactive: -0.646.
To GGUUUUCUACUUCUCAAUUTT against Sec61g belongs inactive: 1.4; to GGUAAUUUUGAAUGUGGCATT against Lemd2, inactive: 1.54; to “GGGACACUUGGACUUUAUATT against 2310020A21Rik”, inactive: -0.511.
The same measure for GCUAAUCUAUCCGUGUCCUTT against B3gnt3: inactive: 0.175; for “GCUAGAUCCAUCCAUAUAGTT against 9130017N09Rik”: inactive: -1.64; for GCGGAUGUUGAAAUGUUUATT against Shprh: inactive: 0.162.
For UGCAACUGUUCAGAUUCUGTT against Olfr149, the z-score was inactive: -0.476.
Take GGAAGAAAUGUUUUUUGGUTT against Hivep2: the z-score was inactive: -0.609.
As to GGUAUUGGAUAACAGAAUUTT against Rasgrp1, the z-score was inactive: 1.05.
Consider GGAGAGCUCUAUGGAUCGATT against Fgf16, for which the z-score is inactive: -0.2.
CCCGGAUCUGAAAACUGAUTT against Capns1: the z-score is inactive: -0.967.
To GGGACAGAUACUUCAGAAGTT against Kcnv1 belongs inactive: -0.937; to GGCUGCUGUCAUUAUUUGUTT against Terf2, inactive: 2.28; to GGCCCUUCAUUUAGUGGAUTT against Trim44, inactive: -1.06.
For the sequence GGACCAAGGCUUUAUGAACTT against Crygn, the z-score is inactive: 1.61.
Take “GCCCAUGCCUAUGCUAAUGTT against A530095I07Rik”: the z-score is inactive: -0.819.
Turning to GGUCUUUUCGAACUCUUCATT against Senp2, the z-score was inactive: -0.392.
The same measure for GGAUUAGGAAACGUGUAUUTT against Jmjd1b: inactive: -0.0148; for GCGACUAUCUAACACGAGUTT against Sacm1l: inactive: -1.03.
In the case of GGUCAAAAUUGAAUAUCCATT against Gpr172b, the z-score was inactive: 0.696.
Regarding GCUUUUCACACGAAAAGGATT against BC042901, the z-score is inactive: -0.0398.
The same measure for GAAGCCUAUUGCUCAAGAUTT against LOC382106: inactive: 1.14; for CCAAACCACCUACCGUAAATT against Rnase9: inactive: 0.971; for CCCACUGUGUUUGUAAAGATT against Emr4: inactive: -0.49.
The same measure for GCCAUCUUUUUACCUGGUCTT against Sepn1: inactive: -0.394.
Consider CGAGAUUGACUCUAUUGGCTT against Psmc5, for which the z-score is inactive: -0.000499.
Regarding GCUAAUGGACGAUUUGAAGTT against Ube2j1, the z-score was inactive: 0.0387.
The same measure for GGCUCUUCAUGAUCCUUUGTT against Clic4: inactive: 0.155; for GGUGCUACAAGAAAUGUCUTT against F13b: inactive: -0.0762; for AAAGAGAUUGGAAAUCUUCTT against BQ176089: inactive: 0.594.
To GGCAAGAAUUCGUUCAUGUTT against Centa1 belongs inactive: 0.638; to GGUCUUCGUGUCGACAUUCTT against Gpr153, inactive: 0.637; to GGACAUUGACACUACUCCATT against Cyp2c55, inactive: 0.131.
To “GGUAGAGCUGCACUUUGGATT against 1110033O09Rik” belongs inactive: -0.735.
GGAGACCUGAAUUUUUCAGTT against Map3k7ip2: the z-score is inactive: 0.671.
Take GGCAUUUUUCUUAGUGAUCTT against Olfr1277: the z-score is inactive: -0.096.
To GGUAGGAAACCUCUCAGAGTT against Kcnc1 belongs inactive: -1.28.
Turning to GGUCAACAUUUGCUGUAAGTT against Inhba, the z-score was inactive: -0.181.
As for “GGGAGUUAUGUUGGUAUCATT against 1700029F12Rik”, the z-score is inactive: -2.34.
Take GCUUAAAUUGACCUCAGUGTT against Nmi: the z-score was inactive: -1.42.
Regarding CCUCAGAUAUUACAUACACTT against Sfrs3, the z-score was inactive: 0.298.
Turning to GGAUGAAUGGAAUUUACUGTT against Fbxo18, the z-score is inactive: 0.103.
With GGUGAAGCUGAAACAACAUTT against BC020002, the z-score was inactive: 0.323.
To GGGAGAGAACGUGUUCUUCTT against P2rxl1 belongs inactive: -1.15; to CGGGAAACUUAGGUAUGAUTT against Olfr1009, inactive: -0.943.
To GCAUAUGGUCCACUAAAAATT against Kcnj4 belongs inactive: 0.316; to “CCUGCUGAAAUAUCAUAAATT against C030039L03Rik”, inactive: 0.187.
As to CCGCACAUGCUCUCAAAUATT against Polr3d, the z-score is inactive: 0.281.
Consider GGGCUUCAGAAAAUCCAGGTT against Dclre1a, for which the z-score was inactive: -0.827.
